Test results published in the supplement of paper PMC10470496.
Counter-ions that a name gives are not always drawn. This is one part of the list. Single values are uncertain, as repeats are few or missing.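 Three clinical Candida auris isolates (clades III, IV and I) from the CDC resistance isolate bank were grown in RPMI-1640 at 35°C. Growth was background-corrected OD600 relative to same-plate vehicle-only wells. Hits required over 50% inhibition in at least two strains and a plate-corrected B-score above 0.1.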

What was measured:
Assay in all cases: growth relative to vehicle control (OD600 ratio) (fraction); higher = less inhibition
Details in all cases: 24 h
C. auris AR-384 = test system: C. auris AR-384
C. auris AR-386 = test system: C. auris AR-386
C. auris AR-387 = test system: C. auris AR-387

Structure (SMILES)	growth (C. auris AR-384; 1 µM)	growth (C. auris AR-384; 10 µM)	growth (C. auris AR-386; 1 µM)	growth (C. auris AR-386; 10 µM)	growth (C. auris AR-387; 1 µM)	growth (C. auris AR-387; 10 µM)
CCCCCCCN(CC)CCCC(O)c1ccc(NS(C)(=O)=O)cc1 (stereo unspecified) [Ibutilide Fumarate]	0.76	1.15	1.01	0.65	0.85	0.67
C=CC[C@@H]1/C=C(\C)C[C@H](C)C[C@H](OC)[C@H]2O[C@@](O)(C(=O)C(=O)N3CCCC[C@H]3C(=O)O[C@H](/C(C)=C/[C@@H]3CC[C@@H](O)[C@H](OC)C3)[C@H](C)[C@@H](O)CC1=O)[C@H](C)C[C@@H]2OC [Tacrolimus (FK506)]	1.1	1.25	0.78	0.97	0.88	1.09
Cc1c(C(=O)Nc2ccc(N3C[C@@H](C)O[C@@H](C)C3)nc2)cccc1-c1ccc(OC(F)(F)F)cc1 [Sonidegib (Erismodegib, NVP-LDE225)]	0.78	0.69	0.68	0.81	0.73	0.66
Nc1ccc(S(=O)(=O)Nc2ccccn2)cc1 [Sulfapyridine]	0.78	1.38	1.26	0.95	0.85	1.02
CC(c1cc2ccccc2s1)N(O)C(N)=O (stereo unspecified) [Zileuton]	0.72	0.64	0.68	0.72	0.88	0.88
CO/N=C(\C(=O)N[C@@H]1C(=O)N2C(C(=O)O)=C(CSc3nc(=O)c(O)nn3C)CS[C@H]12)c1csc(N)n1 [Ceftriaxone Sodium Trihydrate]	0.65	0.67	0.8	0.93	0.83	0.83
CC1(C)S[C@@H]2[C@H](NC(=O)C(C(=O)O)c3ccccc3)C(=O)N2[C@H]1C(=O)O (stereo partly specified) [Carbenicillin disodium]	0.88	0.73	0.53	0.8	0.65	0.69
CCN(CC)C(=O)c1cccc(C)c1	0.93	0.67	0.86	0.91	1.07	0.94
CC(C)OC(=O)C(C(=O)OC(C)C)=C1SC=CS1 [Malotilate]	1.02	0.85	1.12	1.33	1.17	1.07
NS(=O)(=O)Cc1noc2ccccc12 [Zonisamide]	1.1	0.7	0.72	0.73	1.07	0.82
N[C@H]1C(O)O[C@H](CO)[C@@H](O)[C@@H]1O (stereo partly specified) [Glucosamine hydrochloride]	1.1	1.12	1.01	1.34	1.56	1.49
N#C[C@@H]1C[C@@H]2C[C@@H]2N1C(=O)[C@@H](N)C12CC3CC(CC(O)(C3)C1)C2 [Saxagliptin]	0.62	0.75	0.73	0.84	0.98	0.9
CC(C)Cn1cnc2c(N)nc3ccccc3c21 [Imiquimod]	0.8	1.29	1.12	0.98	0.9	0.96
O=C(NC(Cc1cc(=O)[nH]c2ccccc12)C(=O)O)c1ccc(Cl)cc1 (stereo unspecified) [Rebamipide]	1.03	0.73	0.78	1.18	0.7	0.8
Cc1nc(NC(=O)N2CCC[C@H]2C(N)=O)sc1-c1ccnc(C(C)(C)C(F)(F)F)c1 [Alpelisib (BYL719)]	0.98	1.13	0.96	0.69	0.78	0.79
CCN1CCC[C@H]1CNC(=O)c1cc(S(N)(=O)=O)ccc1OC [Levosulpiride]	0.71	0.73	0.75	0.89	0.83	0.79
CC(=O)Oc1ccccc1C(=O)O.CC(=O)Oc1ccccc1C(=O)O.NC(N)=O [Carbasalate Calcium]	0.93	0.72	0.93	0.85	1.07	0.86
CN(C)CCC(c1ccccc1)c1ccccn1 (stereo unspecified) [Pheniramine Maleate]	0.73	0.7	0.56	0.88	0.83	0.9
CC(=O)/N=c1/sc(S(N)(=O)=O)nn1C [Methazolamide]	0.84	0.91	0.66	0.66	0.81	0.71
CNCCc1ccccn1 [Betahistine 2HCl]	0.9	0.84	0.58	0.75	0.65	0.73
CN(C)C(=N)NC(=N)N [Metformin HCl]	0.8	0.94	0.82	0.92	0.71	1.1
CCOC(=O)n1ccn(C)c1=S [Carbimazole]	0.95	0.91	0.79	1.01	0.71	0.99
CN1[C@@H]2CC[C@H]1C[C@@H](OC(c1ccccc1)c1ccccc1)C2 [Benztropine mesylate]	0.9	0.84	1.16	0.83	0.83	1.04

Single records (already shown). Values in the order: growth (C. auris AR-384; 1 µM)	growth (C. auris AR-384; 10 µM)	growth (C. auris AR-386; 1 µM)	growth (C. auris AR-386; 10 µM)	growth (C. auris AR-387; 1 µM)	growth (C. auris AR-387; 10 µM)
CCCCCCCN(CC)CCCC(O)c1ccc(NS(C)(=O)=O)cc1 (stereo unspecified) [Ibutilide Fumarate] is listed as 0.76	1.15	1.01	0.65	0.85	0.67
O=C(NC(Cc1cc(=O)[nH]c2ccccc12)C(=O)O)c1ccc(Cl)cc1 (stereo unspecified) [Rebamipide] is listed as 1.03	0.73	0.78	1.18	0.7	0.8
CCN(CC)C(=O)c1cccc(C)c1 is listed as 0.93	0.67	0.86	0.91	1.07	0.94

Next part.

Structure (SMILES)	growth (C. auris AR-384; 1 µM)	growth (C. auris AR-384; 10 µM)	growth (C. auris AR-386; 1 µM)	growth (C. auris AR-386; 10 µM)	growth (C. auris AR-387; 1 µM)	growth (C. auris AR-387; 10 µM)
C[C@H](NCc1ccc(OCc2cccc(F)c2)cc1)C(N)=O [Safinamide Mesylate]	0.78	0.89	1.16	0.95	0.93	0.94
Cc1nnc(C(=O)NC(C)(C)c2nc(C(=O)NCc3ccc(F)cc3)c(O)c(=O)n2C)o1 [Raltegravir (MK-0518)]	0.93	0.95	0.89	1.05	0.75	1.18
Cc1ncc([N+](=O)[O-])n1CC(C)O (stereo unspecified) [Secnidazole]	0.97	0.97	0.77	0.91	1.14	1.16
CC(C)(Oc1ccc(Cl)cc1)C(=O)OCCOC(=O)c1cccnc1 [Etofibrate]	0.93	0.82	0.84	0.85	0.8	0.65
Cc1cn([C@H]2C=C[C@@H](CO)O2)c(=O)[nH]c1=O [Stavudine (d4T)]	1.62	0.87	0.91	1.35	1.18	1.23
CCOC(=O)/C=C(C)/C=C/C=C(C)/C=C/c1c(C)cc(OC)c(C)c1C [Etretinate]	1.24	1.26	0.88	1.02	0.87	0.92
CC(C)C[C@H](NC(=O)[C@H](CCc1ccccc1)NC(=O)CN1CCOCC1)C(=O)N[C@@H](Cc1ccccc1)C(=O)N[C@@H](CC(C)C)C(=O)[C@@]1(C)CO1 [Carfilzomib (PR-171)]	1.02	0.61	0.72	0.92	0.96	1.08
CC[C@H](NC(=O)[C@H](C)NC)C(=O)N1C[C@@H](O)C[C@H]1Cc1c(-c2[nH]c3cc(F)ccc3c2C[C@@H]2C[C@H](O)CN2C(=O)[C@H](CC)NC(=O)[C@H](C)NC)[nH]c2cc(F)ccc12 [Birinapant]	1.06	1.23	1.22	0.89	0.86	0.75
OC(CCN1CCCCC1)(c1ccccc1)C1CCCCC1 (stereo unspecified) [Trihexyphenidyl hydrochloride]	0.9	0.88	0.94	0.91	0.7	1.16
CCCN(CCC)C(=O)C1=Cc2ccc(-c3ccc(C(=O)N4CCCC4)cc3)cc2N=C(N)C1 [Motolimod (VTX-2337)]	0.74	0.96	1.1	0.72	0.59	0.63
O=C(NC[C@H](O)CO)c1ccncc1Nc1ccc(I)cc1F	0.88	1	1.17	0.97	1.05	1.13
O=C(O)c1cccnc1 [Nicotinic Acid]	0.64	1.04	1.06	0.89	0.73	0.97
CC(=O)S[C@@H]1CC2=CC(=O)CC[C@]2(C)[C@H]2CC[C@@]3(C)[C@@H](CC[C@@]34CCC(=O)O4)[C@H]12 [Spironolactone]	0.84	0.8	0.74	0.89	0.71	0.86
CC[C@H]1OC(=O)[C@H](C)[C@@H](O[C@H]2C[C@@](C)(OC)[C@@H](O)[C@H](C)O2)[C@H](C)[C@@H](O[C@@H]2O[C@H](C)C[C@H](N(C)C)[C@H]2O)[C@](C)(O)C[C@@H](C)[C@@H]2N[C@@H](COCCOC)O[C@H]([C@H]2C)[C@]1(C)O [Dirithromycin]	0.99	1.07	1	0.85	1.01	0.97
Cc1cc(C)cc(OCC2CNC(=O)O2)c1 (stereo unspecified) [Metaxalone]	1.08	1.08	1.46	0.95	0.91	0.96
COc1cc2/c(=N/c3ccc(Br)cc3F)nc[nH]c2cc1OCC1CCN(C)CC1 [Vandetanib (ZD6474)]	0.7	0.78	1.11	0.94	1.11	0.89
CCCCOc1ccc(CC(=O)NO)cc1 [Bufexamac]	0.89	0.97	1.05	1.03	0.63	0.96
N#CC1(c2ccc(NC(=O)c3cccnc3NCc3ccncc3)cc2)CCCC1 [Apatinib mesylate]	1.02	1	1.07	1.07	0.78	0.84
N=C(N)NC(=O)c1nc(Cl)c(N)nc1N [Amiloride HCl dihydrate]	1.57	1.49	1.25	1.17	1.34	1.07
C[C@@H]1C[C@H]2[C@@H]3C[C@H](F)C4=CC(=O)C=C[C@]4(C)[C@@]3(F)[C@@H](O)C[C@]2(C)[C@@]1(O)C(=O)CO [Flumethasone]	0.96	0.77	0.87	1.17	0.78	0.88
CC(C)(C)NCC(O)c1cc(O)cc(O)c1 (stereo unspecified) [Terbutaline Sulfate]	0.66	0.93	0.84	1.31	0.98	0.91
O=C1c2cccc(O)c2C(=O)c2c(O)cccc21 [Danthron]	1.01	1.11	0.84	0.75	0.85	0.83
CCC/N=C1\S/C(=C\c2ccc(OC[C@H](O)CO)c(Cl)c2)C(=O)N1c1ccccc1C [Ponesimod]	1.11	1.32	1.09	1	0.77	0.81
